Data from patent US20240150372A1 (priority 2021, published 2024).
For at least one compound, name, drawing or mass did not settle the structure.

Assays:
[1] = tested on: male F344 rats; assay: Morphine intravenous self-administration, single administration; assay type: in vivo, rat; conditions: for morphine intake, duration of reduction: single administration
[2] = tested on: male F344 rats; assay: Cocaine intravenous self-administration; assay type: in vivo, rat; conditions: 40 mg/kg IP, acute, n=4
[3] = tested on: male F344 rats; assay: Morphine self-administration, repeated dosing regimen; assay type: in vivo, rat
[4] = tested on: mature BDNF; assay: Mature BDNF ELISA of rat brain regions; assay type: in vivo; conditions: for mature BDNF expression in nucleus accumbens (NAc): 40 mg/kg IP; for mature BDNF protein in mPFC, persistence / mature BDNF protein in medial prefrontal cortex (mPFC): single dose 40 mg/kg IP; for mature BDNF protein in mPFC, persistence: 5 days; for mature BDNF protein in medial prefrontal cortex (mPFC): after 24 h
[5] = tested on: GDNF; assay: GDNF ELISA of rat brain regions; assay type: in vivo; conditions: 40 mg/kg IP; for GDNF protein levels in mPFC / GDNF protein levels in ventral tegmental area (VTA): after 5 days

Row | SMILES | morphine intake, duration of reduction ([1]; 10 mg/kg IP) | morphine intake, duration of reduction ([1]; 40 mg/kg IP) | number of morphine infusions in the session immediately following administration ([1]; both doses, 10 and 40 mg/kg IP) | cocaine self-administration [2] | morphine self-administration under the repeated dosing procedure ([3]; 40, 10 and 5 mg/kg IP) | morphine self-administration in the session immediately following administration ([3]; first administration of 40 mg/kg) | mature BDNF expression in nucleus accumbens (NAc) [4] | mature BDNF protein in mPFC, persistence [4] | mature BDNF protein in medial prefrontal cortex (mPFC) [4] | GDNF expression in nucleus accumbens (NAc) [5] | GDNF protein levels in mPFC [5] | GDNF protein levels in ventral tegmental area (VTA) [5]
1 | CCC1CC2CC3c4oc5ccc(O)cc5c4CCN(C2)C13 (stereo not shown) [oxa-noribogaine] | Intake returned to baseline levels for the second session | morphine intake remained significantly lower than baseline levels for seven consecutive sessions | significantly reduced | reduced cocaine self-administration (n=4) for three days following administration | significantly reduced morphine self-administration at all doses tested | essentially blocked morphine self-administration | No statistically significant modulation | remained elevated for up to 5 days | Increased levels of mature BDNF protein | No statistically significant modulation | significantly increased GDNF protein levels | significantly increased GDNF protein levels
2 | CC[C@H]1C[C@H]2C[C@H]3c4[nH]c5ccc(O)cc5c4CC[N@@](C2)C13 [noribogaine, reference compound] |  | significantly reduced morphine intake compared to VEH for three consecutive sessions |  |  |  |  | No statistically significant modulation | remained elevated for up to 5 days | Increased levels of mature BDNF protein | No statistically significant modulation | but not noribogaine (40 mg/kg; IP) significantly increased GDNF protein levels | but not noribogaine (40 mg/kg; IP) significantly increased GDNF protein levels
